Our source for the binding values is paper doi:10.1101/067876.

No constants are given. Whether binding was seen depends on the method and setting. Binding seen in cells or lysates may run through a third protein. Binding can be weak; no strength is given.

First the molecules themselves.
B1: BicD (protein, UniProt P16568 1-782)
chain: MSSASNNGPSADQSVQDLQMEVERLTRELDQVSSASAQSAQYGLSLLEEKSALQQKCEELETLYDNTRHELDITQEALTKFQTSQKVTNKTGIEQEDALLNESAARETSLNLQIFDLENELKQLRHELERVRNERDRMLQENSDFGRDKSDSEADRLRLKSELKDLKFRETRMLSEYSELEEENISLQKQVSSLRSSQVEFEGAKHEIRRLTEEVELLNQQVDELANLKKIAEKQMEEALETLQGEREAKYALKKELDGHLNRESMYHISNLAYSIRSNMEDNASNNSDGEEENLALKRLEADLSTELKSPDGTKCDLFSEIHLNELKKLEKQLESMESEKTHLTANLREAQTSLDKSQNELQNFMSRLALLAAHVDALVQLKKQIDVKEQGKEGGQKKDELEQQLRALISQYANWFTLSAKEIDGLKTDIAELQKGLNYTDATTTLRNEVTNLKNKLLATEQKSLDLQSDVQTLTHISQNAGQSLGSARSTLVALSDDLAQLYHLVCTVNGETPTRVLLDHKTDDMSFENDSLTAIQSQFKSDVFIAKPQIVEDLQGLADSVEIKKYVDTVSDQIKYLKTAVEHTIDMNKHKIRSEGGDALEKVNTEEMEELQEQIVKLKSLLSVKREQIGTLRNVLKSNKQTAEVALTNLKSKYENEKIIVSDTMSKLRNELRLLKEDAATFSSLRAMFAARCEEYVTQVDDLNRQLEAAEEEKKTLNQLLRLAVQQKLALTQRLEEMEMDREMRHVRRPMPAQRGTSGKSSFSTRPSSRNPASSNANPF
B2: dynein (detected as Dic) (protein, UniProt Q24246 1-663)
chain: MDRKAELERKKAKLAALREEKDRRRREKEIKDMEEAAGRIGGGAGIDKDQRKDLDEMLSSLGVAPVSEVLSSLSSVNSMTSDNSNTQTPDASLQATVNGQSGGKKQPLNLSVYNVQATNIPPKETLVYTKQTQTTSTGGGNGDVLSCHSSPLSGYMEDWWRPRKAHATDYYDEYNLNPGLEWEDEFTDDEESSLQNLGNGFTSKLPPGYLTHGLPTVKDVAPAITPLEIKKETEVKKEVNELSEEQKQMIILSENFQRFVVRAGRVIERALSENVDIYTDYIGGGDSEEANDERSHARLSLNRVFYDERWSKNRCITSMDWSTHFPELVVGSYHNNEESPNEPDGVVMVWNTKFKKSTPEDVFHCQSAVMSTCFAKFNPNLILGGTYSGQIVLWDNRVQKRTPIQRTPLSAAAHTHPVYCLQMVGTQNAHNVISISSDGKLCSWSLDMLSQPQDTLELQQRQSKAIAITSMAFPANEINSLVMGSEDGYVYSASRHGLRSGVNEVYERHLGPITGISTHYNQLSPDFGHLFLTSSIDWTIKLWSLKDTKPLYSFEDNSDYVMDVAWSPVHPALFAAVDGSGRLDLWNLNQDTEVPTASIVVAGAPALNRVSWTPSGLHVCIGDEAGKLYVYDVAENLAQPSRDEWSRFNTHLSEIKMNQSDEV
B3: Staufen (protein, UniProt P25159 1-1026)
chain: MQHNVHAARPAPHIRAAHHHSHSHAHMHLHPGMEQHLGPSLQQQQQPPPPPQQPPHRDLHARLNHHHLHAQQQQQQQTSSNQAGAVAAAGAAYHHGNINSNSGSNISSNSNQMQKIRQQHQHLSSSNGLLGNQPPGPPPQAFNPLAGNPAALAYNQLPPHPPHHMAAHLGSYAAPPPHYYMSQAKPAKYNHYGSNANSNSGSNNSNSNYAPKAILQNTYRNQKVVVPPVVQEVTPVPEPPVTTNNATTNSTSNSTVIASEPVTQEDTSQKPETRQEPASADDHVSTGNIDATGALSNEDTSSSGRGGKDKTPMCLVNELARYNKITHQYRLTEERGPAHCKTFTVTLMLGDEEYSADGFKIKKAQHLAASKAIEETMYKHPPPKIRRSEEGGPMRTHITPTVELNALAMKLGQRTFYLLDPTQIPPTDSIVPPEFAGGHLLTAPGPGMPQPPPPPAYALRQRLGNGFVPIPSQPMHPHFFHGPGQRPFPPKFPSRFALPPPLGAHVHHGPNGPFPSVPTPPSKITLFVGKQKFVGIGRTLQQAKHDAAARALQVLKTQAISASEEALEDSMDEGDKKSPISQVHEIGIKRNMTVHFKVLREEGPAHMKNFITACIVGSIVTEGEGNGKKVSKKRAAEKMLVELQKLPPLTPTKQTPLKRIKVKTPGKSGAAAREGSVVSGTDGPTQTGKPERRKRLNPPKDKLIDMDDADNPITKLIQLQQTRKEKEPIFELIAKNGNETARRREFVMEVSASGSTARGTGNSKKLAKRNAAQALFELLEAVQVTPTNETQSSEECSTSATMSAVTAPAVEATAEGKVPMVATPVGPMPGILILRQNKKPAKKRDQIVIVKSNVESKEEEANKEVAVAAEENSNNSANSGDSSNSSSGDSQATEAASESALNTSTGSNTSGVSSNSSNVGANTDGNNHAESKNNTESSSNSTSNTQSAGVHMKEQLLYLSKLLDFEVNFSDYPKGNHNEFLTIVTLSTHPPQICHGVGKSSEESQNDAASNALKILSKLGLNNAMK

The target in this test is EmGFP-Tm1-I (DmTropomyosin1-I/C isoform, EmeraldGFP fusion) (Drosophila melanogaster). The test is described as follows: co-IP.
B1: the binding result was “no binding”.
Next, B2: “no binding”; B3: “binds”.
